These are yes or no findings as the source states them, for the method shown. For some of these results: In cells and extracts the contact can be indirect. Some binding calls cover weakened binding; strength is not graded here. For some of these results: Sequences can lack the tags named with a protein. Values belong to the molecule of their own block, whether it stands above or below them.
What was measured:
[1] = target: T1, endogenous HDAC3 (mouse (endogenous in P19)) (UniProt O88895); assay: co-IP; endogenous proteins of P19 cells; cells untreated or treated with atRA (0.1 μM, 6 h or a time course of 0-48 h), ERK activator S-1-P, TSA, siRNA to TR2 or ERK2, expression of WT or Ser-424→Ala HDAC3; whole lysates or nuclear and cytoplasmic fractions
T1 sequence: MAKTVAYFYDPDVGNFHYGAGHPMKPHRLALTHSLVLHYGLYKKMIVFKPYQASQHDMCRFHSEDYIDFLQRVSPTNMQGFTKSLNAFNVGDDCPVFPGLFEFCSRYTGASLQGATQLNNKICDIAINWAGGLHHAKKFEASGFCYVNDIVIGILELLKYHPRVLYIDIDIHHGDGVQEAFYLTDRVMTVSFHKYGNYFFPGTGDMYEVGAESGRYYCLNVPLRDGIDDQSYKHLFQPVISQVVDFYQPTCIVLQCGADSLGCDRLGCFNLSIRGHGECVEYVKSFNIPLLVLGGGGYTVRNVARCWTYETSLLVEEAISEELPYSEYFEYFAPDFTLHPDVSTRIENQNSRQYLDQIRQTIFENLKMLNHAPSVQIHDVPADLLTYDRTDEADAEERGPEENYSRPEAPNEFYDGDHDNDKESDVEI

Sequences of proteins named here, by UniProt entry; tags and fusion partners are left off.
UniProt Q6P5F9: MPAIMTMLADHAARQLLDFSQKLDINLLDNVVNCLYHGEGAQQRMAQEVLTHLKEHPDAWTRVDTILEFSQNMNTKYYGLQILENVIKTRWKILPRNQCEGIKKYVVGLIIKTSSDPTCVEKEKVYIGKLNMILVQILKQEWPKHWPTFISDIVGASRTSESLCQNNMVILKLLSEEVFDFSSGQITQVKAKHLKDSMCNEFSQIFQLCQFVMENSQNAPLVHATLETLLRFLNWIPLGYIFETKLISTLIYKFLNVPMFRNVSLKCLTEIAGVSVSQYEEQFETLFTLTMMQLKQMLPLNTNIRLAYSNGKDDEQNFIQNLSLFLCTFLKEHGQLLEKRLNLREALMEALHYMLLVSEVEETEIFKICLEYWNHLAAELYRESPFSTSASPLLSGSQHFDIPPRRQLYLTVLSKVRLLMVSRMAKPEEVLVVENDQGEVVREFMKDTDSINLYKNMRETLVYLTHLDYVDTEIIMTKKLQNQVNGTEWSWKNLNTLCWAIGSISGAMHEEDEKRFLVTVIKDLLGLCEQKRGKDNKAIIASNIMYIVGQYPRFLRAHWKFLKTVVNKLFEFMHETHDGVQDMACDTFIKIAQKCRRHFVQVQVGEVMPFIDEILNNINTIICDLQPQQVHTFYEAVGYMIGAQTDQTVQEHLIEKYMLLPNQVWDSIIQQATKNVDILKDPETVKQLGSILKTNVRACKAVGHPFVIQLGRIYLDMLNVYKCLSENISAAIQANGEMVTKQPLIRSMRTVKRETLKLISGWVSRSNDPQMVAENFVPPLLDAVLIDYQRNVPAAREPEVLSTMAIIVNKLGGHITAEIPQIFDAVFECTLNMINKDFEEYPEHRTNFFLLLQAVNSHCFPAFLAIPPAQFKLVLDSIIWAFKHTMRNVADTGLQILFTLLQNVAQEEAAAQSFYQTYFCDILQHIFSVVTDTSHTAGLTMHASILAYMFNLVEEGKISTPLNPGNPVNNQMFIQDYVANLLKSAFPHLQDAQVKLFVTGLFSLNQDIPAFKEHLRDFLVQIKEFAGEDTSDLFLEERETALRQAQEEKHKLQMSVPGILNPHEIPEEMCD
UniProt P70168: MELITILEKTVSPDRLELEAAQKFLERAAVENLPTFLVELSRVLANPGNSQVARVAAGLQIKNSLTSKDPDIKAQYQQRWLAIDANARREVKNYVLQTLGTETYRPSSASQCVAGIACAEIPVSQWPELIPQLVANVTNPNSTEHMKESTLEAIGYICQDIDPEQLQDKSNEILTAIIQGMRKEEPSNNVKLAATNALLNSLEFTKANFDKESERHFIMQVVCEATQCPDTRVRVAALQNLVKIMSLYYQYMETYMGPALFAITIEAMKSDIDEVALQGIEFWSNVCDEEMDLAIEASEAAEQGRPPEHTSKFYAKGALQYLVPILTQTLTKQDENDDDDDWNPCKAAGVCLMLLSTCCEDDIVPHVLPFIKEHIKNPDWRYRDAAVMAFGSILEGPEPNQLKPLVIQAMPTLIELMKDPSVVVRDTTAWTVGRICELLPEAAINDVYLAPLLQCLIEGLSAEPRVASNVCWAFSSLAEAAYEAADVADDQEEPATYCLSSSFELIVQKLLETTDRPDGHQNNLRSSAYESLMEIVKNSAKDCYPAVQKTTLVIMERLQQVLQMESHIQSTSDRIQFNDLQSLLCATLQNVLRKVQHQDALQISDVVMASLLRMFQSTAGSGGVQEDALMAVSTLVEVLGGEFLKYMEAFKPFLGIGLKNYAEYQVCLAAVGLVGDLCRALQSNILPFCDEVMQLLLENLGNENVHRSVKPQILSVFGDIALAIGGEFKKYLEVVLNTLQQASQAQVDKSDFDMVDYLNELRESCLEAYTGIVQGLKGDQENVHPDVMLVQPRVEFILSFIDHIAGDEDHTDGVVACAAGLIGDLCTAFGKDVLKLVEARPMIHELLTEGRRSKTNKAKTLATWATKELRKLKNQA

[2] = target: T2, TR2 full-length wild type (GAL4 two-hybrid construct) (mouse), Q505F1; assay: two-hybrid; mammalian version of the two-hybrid system in COS-1 cells, GAL4 tk-luciferase reporter; conditions: remark: other sources report otherwise
T2 chain: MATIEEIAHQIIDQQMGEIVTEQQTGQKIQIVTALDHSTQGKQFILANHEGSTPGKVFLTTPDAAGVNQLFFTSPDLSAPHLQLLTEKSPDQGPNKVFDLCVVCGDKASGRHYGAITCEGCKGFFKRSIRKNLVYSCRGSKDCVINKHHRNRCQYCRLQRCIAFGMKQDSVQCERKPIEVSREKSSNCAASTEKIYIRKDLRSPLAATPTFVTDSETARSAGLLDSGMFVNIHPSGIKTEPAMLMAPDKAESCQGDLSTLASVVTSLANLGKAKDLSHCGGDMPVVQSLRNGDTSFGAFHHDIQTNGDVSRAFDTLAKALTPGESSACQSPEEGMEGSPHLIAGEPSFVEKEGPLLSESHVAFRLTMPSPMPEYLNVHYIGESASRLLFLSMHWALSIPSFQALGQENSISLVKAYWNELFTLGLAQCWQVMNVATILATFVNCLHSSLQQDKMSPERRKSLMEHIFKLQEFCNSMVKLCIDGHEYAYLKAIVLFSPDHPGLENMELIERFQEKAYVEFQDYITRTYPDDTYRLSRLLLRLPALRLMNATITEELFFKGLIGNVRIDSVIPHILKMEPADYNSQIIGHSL

[3] = target: T3, endogenous TR2 (mouse (endogenous in P19)), Q505F1; assay: co-IP; endogenous proteins of P19 cells; cells untreated or treated with atRA (0.1 μM, 6 h or a time course of 0-48 h), ERK activator S-1-P, TSA, siRNA to TR2 or ERK2, expression of WT or Ser-424→Ala HDAC3; whole lysates or nuclear and cytoplasmic fractions; conditions: remark: other sources report otherwise
T3 chain: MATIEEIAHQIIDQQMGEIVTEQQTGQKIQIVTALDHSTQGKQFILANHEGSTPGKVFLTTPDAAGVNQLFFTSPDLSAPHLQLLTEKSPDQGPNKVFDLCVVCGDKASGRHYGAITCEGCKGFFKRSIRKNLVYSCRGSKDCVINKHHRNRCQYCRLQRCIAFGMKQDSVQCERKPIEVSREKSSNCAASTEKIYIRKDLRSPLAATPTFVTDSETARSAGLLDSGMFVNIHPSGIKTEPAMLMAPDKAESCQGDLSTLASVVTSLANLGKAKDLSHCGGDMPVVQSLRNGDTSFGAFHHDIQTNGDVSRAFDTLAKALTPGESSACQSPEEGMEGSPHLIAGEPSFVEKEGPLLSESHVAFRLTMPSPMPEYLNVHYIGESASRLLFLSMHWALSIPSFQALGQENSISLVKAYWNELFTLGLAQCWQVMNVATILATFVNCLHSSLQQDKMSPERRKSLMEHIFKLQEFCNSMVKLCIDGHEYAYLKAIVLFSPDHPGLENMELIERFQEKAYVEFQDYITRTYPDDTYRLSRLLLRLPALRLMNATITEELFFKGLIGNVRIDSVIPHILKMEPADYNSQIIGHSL

[4] = target: T4, FLAG-tagged WT TR2 (mouse), Q505F1; assay: co-IP; P19 cells transiently transfected (0.5 μg/ml, 16 h) with FLAG-tagged TR2 constructs; association with endogenous HDAC3 and PML; conditions: remark: other sources report otherwise
T4 chain: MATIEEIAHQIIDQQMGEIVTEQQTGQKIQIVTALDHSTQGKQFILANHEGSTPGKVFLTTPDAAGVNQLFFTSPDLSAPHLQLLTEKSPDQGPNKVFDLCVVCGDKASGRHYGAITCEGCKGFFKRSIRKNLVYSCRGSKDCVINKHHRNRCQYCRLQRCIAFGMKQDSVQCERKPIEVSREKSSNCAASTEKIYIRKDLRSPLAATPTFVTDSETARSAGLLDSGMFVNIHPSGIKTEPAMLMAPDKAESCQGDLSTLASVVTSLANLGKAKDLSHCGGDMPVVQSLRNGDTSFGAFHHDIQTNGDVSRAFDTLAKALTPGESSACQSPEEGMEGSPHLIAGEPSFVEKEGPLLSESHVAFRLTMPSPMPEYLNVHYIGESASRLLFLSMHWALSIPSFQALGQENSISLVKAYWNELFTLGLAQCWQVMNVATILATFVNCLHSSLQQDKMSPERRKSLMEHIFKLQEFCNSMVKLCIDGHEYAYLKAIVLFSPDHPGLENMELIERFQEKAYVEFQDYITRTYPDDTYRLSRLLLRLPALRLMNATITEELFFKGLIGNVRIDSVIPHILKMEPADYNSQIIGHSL

[5] = target: T3, endogenous TR2 (mouse (endogenous in …)); assay: co-IP; endogenous proteins of P19 cells treated with the ERK2 inhibitor AMTZD (25 μM, 6 h), with or without atRA; conditions: remark: other sources report otherwise
[6] = target: T5, GST–TR2 WT (mouse), Q505F1; assay: pull-down; GST pull-down: recombinant GST–TR2 purified from E. coli incubated with 35S-labeled in vitro-transcribed and translated protein; SDS–PAGE and autoradiography; only the target purified; conditions: remark: other sources report otherwise
T5 chain: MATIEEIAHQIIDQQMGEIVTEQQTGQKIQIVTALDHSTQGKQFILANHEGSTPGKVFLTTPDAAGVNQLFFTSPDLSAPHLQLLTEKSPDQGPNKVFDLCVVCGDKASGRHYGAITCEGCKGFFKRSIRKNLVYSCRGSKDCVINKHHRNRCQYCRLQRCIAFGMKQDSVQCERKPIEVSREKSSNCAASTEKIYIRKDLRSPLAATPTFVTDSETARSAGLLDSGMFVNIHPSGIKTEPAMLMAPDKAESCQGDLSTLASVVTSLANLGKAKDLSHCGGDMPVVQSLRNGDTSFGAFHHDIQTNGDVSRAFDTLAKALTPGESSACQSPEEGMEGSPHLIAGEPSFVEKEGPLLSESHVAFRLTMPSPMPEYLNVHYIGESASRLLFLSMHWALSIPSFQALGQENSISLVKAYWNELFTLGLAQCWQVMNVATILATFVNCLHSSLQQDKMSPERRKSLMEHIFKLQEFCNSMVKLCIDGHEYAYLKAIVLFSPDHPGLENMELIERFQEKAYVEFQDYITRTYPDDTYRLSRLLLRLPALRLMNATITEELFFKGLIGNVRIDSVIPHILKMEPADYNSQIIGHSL

Molecule: exportin 1 (CRM1) (from UniProt Q6P5F9 1-1071)
binding [1]: binds

B3: 35S-labeled in vitro-transcribed and translated PML, Q60953 1-885 (protein)
chain: METEPVSVQKVPAPPGSPCRQQDSALTPTPTMPPPEEPSEDYEHSQSPAEQAIQEEFQFLRCPSCQAQAKCPKLLPCLHTLCSGCLEAPGLQCPICKAPGQADANGEALDNVFFESLQRRLAVFRQIVDAQAACTRCKGLADFWCFECEQLICSKCFEAHQWYLKHEARPLADLRDNSVSSFLDSTRKSNIFCSNTNHRNPALTDIYCRGCAKPLCCTCALLDRNHSHLHCDIGEEIQQWHEELGTMTQTLEEQGRTFDSAHAQMCSAIGQLDHARADIEKQIRARVRQVVDYVQAQERELLEAVNDRYQRDYQEIAGQLSCLEAVLQRIRTSGALVKRMKLYASDQEVLDMHSFLRKALCSLRQEEPQNQKVQLLTRGFEEFKLCLQDFISCITQRINAAVASPEAASNQPEAASTHPVTTSTPEDLEQPKEVQSVQAQALELSKTQPVAMVKTVPGAHPVPVYAFSMQGPTYREEASQTVGSMKRKCSHEDCSRKIIKMESTEENEDRLATSSPEQSWPSTFKATSPPHLDGTSNPESTVPEKKILLPNNNHVTSDTGETEERVVVISSSEDSDTENLSSHELDDSSSESSSLQLEGPNSLKALDESLAEPHLEDRTLVFFDLKIDNETQKISQLAAVNRESKFRVLIQPEAFSVYSKAVSLEAGLRHFLSFLTTMHRPILACSRLWGPGLPIFFQTLSDINKLWEFQDTISGFLAVLPLIRERIPGASSFKLGNLAKTYLARNMSERSALASVLAMRDLCCLLEISPGLPLAQHIYSFSSLQCFASLQPLIQASVLPQSEARLLALHNVSFVELLNAYRTNRQEGLKKYVHYLSLQTTPLSSSASTQVAQFLQALSTHMEGLLEGHAPAGAEGKAESKGCLA
modifications: here or on the partner: 35S-labeled
binding [6]: no binding

Further lines, results first:

binding [1]: binds
Molecule: importin-β1 (karyopherin β1) (from UniProt P70168 1-876)

binding [2]: binds
B1: HDAC3 (mammalian two-hybrid construct), O88895 1-428 (protein)
chain: MAKTVAYFYDPDVGNFHYGAGHPMKPHRLALTHSLVLHYGLYKKMIVFKPYQASQHDMCRFHSEDYIDFLQRVSPTNMQGFTKSLNAFNVGDDCPVFPGLFEFCSRYTGASLQGATQLNNKICDIAINWAGGLHHAKKFEASGFCYVNDIVIGILELLKYHPRVLYIDIDIHHGDGVQEAFYLTDRVMTVSFHKYGNYFFPGTGDMYEVGAESGRYYCLNVPLRDGIDDQSYKHLFQPVISQVVDFYQPTCIVLQCGADSLGCDRLGCFNLSIRGHGECVEYVKSFNIPLLVLGGGGYTVRNVARCWTYETSLLVEEAISEELPYSEYFEYFAPDFTLHPDVSTRIENQNSRQYLDQIRQTIFENLKMLNHAPSVQIHDVPADLLTYDRTDEADAEERGPEENYSRPEAPNEFYDGDHDNDKESDVEI

binding [3]: binds | binding [4]: binds | binding [5]: binds
B2: endogenous HDAC3, O88895 1-428 (protein)
chain: MAKTVAYFYDPDVGNFHYGAGHPMKPHRLALTHSLVLHYGLYKKMIVFKPYQASQHDMCRFHSEDYIDFLQRVSPTNMQGFTKSLNAFNVGDDCPVFPGLFEFCSRYTGASLQGATQLNNKICDIAINWAGGLHHAKKFEASGFCYVNDIVIGILELLKYHPRVLYIDIDIHHGDGVQEAFYLTDRVMTVSFHKYGNYFFPGTGDMYEVGAESGRYYCLNVPLRDGIDDQSYKHLFQPVISQVVDFYQPTCIVLQCGADSLGCDRLGCFNLSIRGHGECVEYVKSFNIPLLVLGGGGYTVRNVARCWTYETSLLVEEAISEELPYSEYFEYFAPDFTLHPDVSTRIENQNSRQYLDQIRQTIFENLKMLNHAPSVQIHDVPADLLTYDRTDEADAEERGPEENYSRPEAPNEFYDGDHDNDKESDVEI
